Experimental findings from US20240108662A1, “ENGINEERED CELLS FUNCTIONALIZED WITH IMMUNE CHECKPOINT MOLECULES AND USES THEREOF” (The University of North Carolina at Chapel Hill, priority 2020, published 2024) are described below.

A short description of the data set: Proteomic analysis of native murine pancreata and decelled pancreatic ECM (Table 1). Further details: species or system mouse. The following applies: for Pancreatic ECM: Mean of log2(intensities): abundance of the listed protein in decelled pancreatic ECM; for Native pancreas tissue: Mean of log2(intensities): abundance of the listed protein in native murine pancreas tissue.

B1: Q8K363 (protein, UniProt Q8K363 1-660, looked up)
chain: MSQLQMKLLRRKIEKRNAKLRQRNLKLQETSDTSLSQPQNGDVPKETGKGGKVKKALKRSVPVDSAEAQSGGMPEETLENGKVKKSPQKLTTLANGEAAPTPPPDSEVKKKKKKKRKMANDAGPDTKKAKTEESAEACEEPEDDVKKADDSEVPSLPLGLTGAFEDTSFASLSNLVNENTLKAIEEMGFKRMTEIQHKSIRPLLEGRDLLAAAKTGSGKTLAFLIPVIELIVKLKFMPRNGTGVLILSPTRELAMQTFGVLKELMTHHVHTYGLIMGGSNRSAEVQKLLNGINIIVATPGRLLDHMQNTPGFMYKNLQCLVIDEADRILDVGFEEELKQIIKLLPARRQTMLFSATQTRKVEDLARISLKKEPLYVGVDDDKEVATVDGLEQGYVVCPSEKRFLLLFTFLKKNRKKKVMVFFSSCMSVKYHYELLNYIDLPVLAIHGKQKQNKRTTTFFQFCNADSGILLCTDVAARGLDIPEVDWIVQYDPPDDPKEYIHRVGRTARGLNGRGHALLILRPEELGFLRYLKQSKVPLNQFDFSWSKVSDIQSQLEKLIEKNYFLHKSAQEAYKSYIRAYDSHSLKQIFNVNNLNLPQVALSFGFKVPPFVDLNVSSHDGKLKKRGGGGGFGYQKTKKVEKSKIFKHISKKPADRRQFSH
modifications: full-length
For the molecule B1, the “Pancreatic ECM: Mean of log2(intensities)” value worked out at 24.85 a.u and the “Native pancreas tissue: Mean of log2(intensities)” value came to 21.77 a.u.

B2: Q80UJ7 (protein, UniProt Q80UJ7 1-981, looked up)
chain: MAADSEPESEVFEITDFTTASEWERFISKVEEVLNDWKLIGPSLGKPLEKGIFTSGTWEERSDEISFADFRFSVTHHYLVQESPDKERKDEELEDAIPQSMQDLLCMNNDFPPRAHCLVRWYGLREFVVIAPAAHSDAVLSESKCNLLLSSISIALGNTGCQVPLFVQIHHKWRRMYMGECQGPGVRTDFEMVHLRKVPSQYTHLSGLLDIFKSKIGCPLTPLPPVSIAIRLTYVLQDWQQYFWPQQPPDIDALVGGEVGGLEFGKLPFGACEDPISELHLATTWPHLTEGIIVDNDVYSDLDPVQAPHWSVRVRKADNPQCLLGDFVTEFLKICRRKESTDEILGRSTFEEEGREVADITHALSKLTEPAPVPIHKLSVSNMVHTAKKKIRKHRGEESPLNSDVLNTILLFLFPDAVSEKPLDGTTSIDNSIPAPEAGDYTLYNQFKSAPSDSLTYKLALCLCMINFYHGGLKGVAHLWQEFVLEMRFRWENNFLIPGLASGSPDLRCCLLHQKLQMLNCCIERKKARDEGKKTSLSDSTTSAYPGDAGKTGGQLGLDHLRDTEKEKGEVGKSWDSWSDSEEEFFECLSDTEDLKGNGQESGKKGGPKEMANLKPEGRLHQHGKLTLLHNGEPLYIPVTQEPAPMTEDLLEEQSEVLAKLGTSAEGAHLRARMQSACLLSDMESFKAANPGCFLEDFVRWYSPRDYIEEEVTDEKGNVVLKGELSARMKIPSNMWVEAWETAKPVPARRQRRLFDDTREAEKVLHYLAMQKPADLARHLLPCVIHAAVLKVKEEESLENIPSVKKIIKQIIAHSSKVLHFPNPEDKKLEEIILQITTVEAIIARARSLKAKFGTEKCEHEEEKEGLERFVSCLLEQPEVSVTGAGRGHAGRIIHKLFVNAQRAAAVALPEEELKKSGCPEERRQTLVSDFPPPAGRELILRATVPRPAPYSKALPQRMYSVLTKEDFRLAGAFSSDTSFF
modifications: full-length
As to B2, the “Pancreatic ECM: Mean of log2(intensities)” value was 24.74 a.u and the “Native pancreas tissue: Mean of log2(intensities)” value is listed as 21.67 a.u.

B3: Q9CQZ0 (protein, UniProt Q9CQZ0 1-153, looked up)
chain: MNVGVAHSEVNPNTRVMNSRGIWLAYIILVGLLHVVLLSIPFFSIPVVWTLTNVIHNLAMYIFLHTVKGTPFETPDQGKARLLTHWEQMDYGLQFTSSRKFLSISPIVLYLLASFYTKYDAAHFLINTASLLSVLLPKLPQFHGVRLFGINKY
modifications: full-length
For the molecule B3, the “Pancreatic ECM: Mean of log2(intensities)” value was 24.61 a.u and the “Native pancreas tissue: Mean of log2(intensities)” value is 21.55 a.u.

B4: Q9QXB9 (protein, UniProt Q9QXB9 1-364, looked up)
chain: MGILEKISEIEKEIARTQKNKATEYHLGLLKAKLAKYRAQLLEPSKSASSKGEGFDVMKSGDARVALIGFPSVGKSTFLSLMTSTASEAASYEFTTLTCIPGVIEYKGANIQLLDLPGIIEGAAQGRGRGRQVIAVARTADVVVMMLDATKGDVQRSLLEKELESVGIRLNKHKPNIYFKPKKGGGISFNSTVTLTQCSEKLVQLILHEYKIFNAEVLFREDCSPDDFIDVIVGNRVYMPCLYVYNKIDQISMEEVDRLARKPNSVVISCGMKLNLDYLLEMLWEYLALTCIYTKKRGQRPDFTDAIILRKGASVEHVCHRIHRSLASQFKYALVWGTSTKYSPQRVGLTHTMEHEDVIQIVKK
modifications: full-length
Regarding B4, the “Pancreatic ECM: Mean of log2(intensities)” value amounted to 24.79 a.u and the “Native pancreas tissue: Mean of log2(intensities)” value stood at 21.63 a.u.

B5: Q6A026 (protein, UniProt Q6A026 1-1332, looked up)
chain: MDFTQPKPATALCGVVSADGKIAYPPGVKEITDKITTDEMIKRLKMVVKTFMDMDQDSEDEKQQYLPLALHLASEFFLRNPNKDVRLLVACCLADIFRIYAPEAPYTSHDKLKDIFLFITRQLKGLEDTKSPQFNRYFYLLENLAWVKSYNICFELEDCNEIFIQLFRTLFSVINNSHNTKVQMHMLDLMSSIIMEGDGVTQELLDSILINLIPAHKNLNKQSFDLAKVLLKRTVQTIEACIANFFNQVLVLGRSSVSDLSEHVFDLIQELFAIDPQLLLSVMPQLEFKLKSNDGEERLAVVRLLAKLFGSKDSDLATQNRPLWQCFLGRFNDIHVPVRLESVKFASHCLMNHPDLAKDLTEYLKVRSHDPEEAIRHDVIVTIITAAKRDLALVNDQLLGFVRERTLDKRWRVRKEAMMGLAQLYKKYCLHGEAGKEAAEKVSWIKDKLLHIYYQNSIDDKLLVEKIFAQYLVPHNLETEERMKCLYYLYASLDPNAVKALNEMWKCQNMLRSHVRELLDLHKQPTSEANCSAMFGKLMTIAKNLPDPGKAQDFVKKFNQVLGDDEKLRSQLELLISPTCSCKQADVCVREIARKLANPKQPTNPFLEMVKFLLERIAPVHIDSEAISALVKLMNKSIEGTADDEEEGVSPDSAIRSGLELLKVLSFTHPTSFHSAETYESLLQCLRMEDDKVAEAAIQIFRNTGHKIETDLPQIRSTLIPILHQKAKRGTPHQAKQAVHCIHAIFSNKEVQLAQIFEPLSRSLNADVPEQLITPLVSLGHISMLAPDQFASPMKSVVANFIVKDLLMNDRSTGEKNGKLWSPDEEVSPEVLAKVYLLRLLVRWLLGMKNNQSKSANSTLRLLSAMLVSEGDLTEQKRISKSDMSRLRLAAGSAIMKLAQEPCYHEIITPEQFQLCALVINDECYQVRQIFAQKLHKALVKLLLPLEYMAIFALCAKDPVKERRAHARQCLLKNISIRREYIKQNPMATEKLLSLLPEYVVPYMIHLLAHDPDFTRSQDVDQLRDIKECLWFMLEVLMTKNENNSHAFMKKMAENIKLTRDAQSPDESKTNEKLYTVCDVALCVINSKSALCNADSPKDPVLPMKFFTQPEKDFCNDKSYISEETRVLLLTGKPKPTGVLGTVNKPLSATGRKPYVRSAGTETGSNINANSELSPSAGSRSREQSSEASETGVSENEENPVRIISVTPVKNIDTVKNKEINSDQSTQGNISSDRGKKRIVTAAGAENIQKPDEKVDESGPPAPSKPRRGRRPKSESQGNATKNDDLNKPVSKGRKRAAGSQESLEAGNAKAPKLQDGAKKAVPAERQIDLQR
modifications: full-length
B5: the “Pancreatic ECM: Mean of log2(intensities)” value is listed as 25.72 a.u and the “Native pancreas tissue: Mean of log2(intensities)” value stood at 22.68 a.u.

B6: Q922P9 (protein, UniProt Q922P9 1-546, looked up)
chain: MAAVSLRLGDLVWGKLGRYPPWPGKIVNPPKDLKKPRGKKCFFVKFFGTEDHAWIKVEQLKPYHAHKEEMIKINKGKRFQQAVDAVEEFLRRAKGKDQTSSHTSADDKNRRNSSEERSRPNSGDEKRKLSLSEGKVKKNMGEGKKRVTSGSADRGSKCLKRAQEQSPRKRGRPPKDEKDLTIPESSTVKGMMAGPMAAFKWQPTATEPVKDADPHFHHFLLSQTEKPAVCYQAITKKLKICEEETGSTSIQAADSTAVNGSITPTDKKIGFLGLGLMGSGIVSNLLKMGHTVTVWNRTAEKEGARLGRTPAEVVSTCDITFACVSDPKAAKDLVLGPSGVLQGIRPGKCYVDMSTVDADTVTELAQVIVSRGGRFLEAPVSGNQQLSNDGMLVILAAGDRGLYEDCSSCFQAMGKTSFFLGEVGNAAKMMLIVNMVQGSFMATIAEGLTLAQVTGQSQQTLLDILNQGQLASIFLDQKCQNILQGNFKPDFYLKYIQKDLRLAIALGDAVNHPTPMAAAANEVYKRAKALDQSDNDMSAVYRAYIH
modifications: full-length
For B6, the “Pancreatic ECM: Mean of log2(intensities)” value was determined as 25.53 a.u and the “Native pancreas tissue: Mean of log2(intensities)” value was determined as 22.44 a.u.

B7: Q6P8H8 (protein, UniProt Q6P8H8 1-526, looked up)
chain: MAASGSATAGGHWFSALALGVTLLKCLLIPTYHSTDFEVHRNWLAITHSLPISQWYYEATSEWTLDYPPFFAWFEYALSHIAKYFDQEMLNIHNLNYYSSRTLLFQRFSVILTDALFVYAVHECCKCIDGKRTGKDLTEKPKFILSVLLLWNFGLLIVDHIHFQYNGFLSGLLLLSIARLFQKRHIEGALLFAVLLHLKHIYLYVAPAYGVYLLRSYCFTASKPDGSVRWSSFSVVRVTSLGLIVFLVSALSLGPFLALNQLPQVFSRLFPFKRGLCHAYWAPNFWALYNALDKVLSVIGLKLKLLDPSQIPRASMTSGLVQQFQHTVLPSVSPLATLICTLIAILPSVFCLWFKPQGPRGFLRCLVLCALSSFMFGWHVHEKAILLAILPMSLLSVEKAGDATVFLILATTGHYSLFPLLFTAPELPIKILLMLLFTVYSISSLKTLFRKEKPLFNWMETVYLLGLGPLEVCCEFLLPFTSWKLKYPFIPLLLTSVYCAVGITYAWTRLYASVLTGSLVSKTKKH
modifications: full-length
With B7, the “Pancreatic ECM: Mean of log2(intensities)” value is on record as 25.56 a.u and the “Native pancreas tissue: Mean of log2(intensities)” value is 22.40 a.u.

B8: P29788 (protein, UniProt P29788 1-478, looked up)
chain: MAPLRPFFILALVAWVSLADQESCKGRCTQGFMASKKCQCDELCTYYQSCCADYMEQCKPQVTRGDVFTMPEDDYWSYDYVEEPKNNTNTGVQPENTSPPGDLNPRTDGTLKPTAFLDPEEQPSTPAPKVEQQEEILRPDTTDQGTPEFPEEELCSGKPFDAFTDLKNGSLFAFRGQYCYELDETAVRPGYPKLIQDVWGIEGPIDAAFTRINCQGKTYLFKGSQYWRFEDGVLDPGYPRNISEGFSGIPDNVDAAFALPAHRYSGRERVYFFKGKQYWEYEFQQQPSQEECEGSSLSAVFEHFALLQRDSWENIFELLFWGRSSDGAREPQFISRNWHGVPGKVDAAMAGRIYVTGSLSHSAQAKKQKSKRRSRKRYRSRRGRGHRRSQSSNSRRSSRSIWFSLFSSEESGLGTYNNYDYDMDWLVPATCEPIQSVYFFSGDKYYRVNLRTRRVDSVNPPYPRSIAQYWLGCPTSEK
modifications: full-length
As for B8, the “Pancreatic ECM: Mean of log2(intensities)” value is listed as 25.77 a.u and the “Native pancreas tissue: Mean of log2(intensities)” value stood at 21.35 a.u.

B9: P54116 (protein, UniProt P54116 1-284, looked up)
chain: MSDKRQSSHVQSQRIPESFRENSKTELGACGWILVAASFFFVIITFPISIWICIKIVKEYERVIIFRLGRILQGGAKGPGLFFILPCTDSLIKVDMRTISFDIPPQEVLTKDSVTISVDGVVYYRVQNATLAVANITNADSATRLLAQTTLRNALGTKNLSQILSDREEIAHHMQSTLDDATDDWGIKVERVEIKDVKLPVQLQRAMAAEAEAAREARAKVIAAEGEMNASRALKEASMVITESPAALQLRYLQTLTTIAAEKNSTIVFPLPVDMLQGIMGSNH
modifications: full-length
Regarding B9, the “Pancreatic ECM: Mean of log2(intensities)” value came out at 25.18 a.u and the “Native pancreas tissue: Mean of log2(intensities)” value turned out to be 22.00 a.u.
